Laboratory results: the supplement of paper PMC12823440, “Inhibitors supercharge kinase turnover through native proteolytic circuits” (Nature, 2025)
Structures can show the parent of a compound that is named as a salt. Some of the results follow. The calls rarely recur for the same compound in another form.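 In K562 cells expressing nanoluciferase-fused kinases, luminescence was recorded at 4 h intervals between 2 and 18 h, normalized as percent of control with DMSO at 100% and a positive control at 0%. A significant (2 sigma) signal drop marks a time point as decreased. The authors' rule for a hit is not shown and takes in more than the number of time points.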

Amino acid sequences for entries named in this document (tags omitted). A change or cut given only in a name is not applied to a line headed by its entry.
UniProt O75460: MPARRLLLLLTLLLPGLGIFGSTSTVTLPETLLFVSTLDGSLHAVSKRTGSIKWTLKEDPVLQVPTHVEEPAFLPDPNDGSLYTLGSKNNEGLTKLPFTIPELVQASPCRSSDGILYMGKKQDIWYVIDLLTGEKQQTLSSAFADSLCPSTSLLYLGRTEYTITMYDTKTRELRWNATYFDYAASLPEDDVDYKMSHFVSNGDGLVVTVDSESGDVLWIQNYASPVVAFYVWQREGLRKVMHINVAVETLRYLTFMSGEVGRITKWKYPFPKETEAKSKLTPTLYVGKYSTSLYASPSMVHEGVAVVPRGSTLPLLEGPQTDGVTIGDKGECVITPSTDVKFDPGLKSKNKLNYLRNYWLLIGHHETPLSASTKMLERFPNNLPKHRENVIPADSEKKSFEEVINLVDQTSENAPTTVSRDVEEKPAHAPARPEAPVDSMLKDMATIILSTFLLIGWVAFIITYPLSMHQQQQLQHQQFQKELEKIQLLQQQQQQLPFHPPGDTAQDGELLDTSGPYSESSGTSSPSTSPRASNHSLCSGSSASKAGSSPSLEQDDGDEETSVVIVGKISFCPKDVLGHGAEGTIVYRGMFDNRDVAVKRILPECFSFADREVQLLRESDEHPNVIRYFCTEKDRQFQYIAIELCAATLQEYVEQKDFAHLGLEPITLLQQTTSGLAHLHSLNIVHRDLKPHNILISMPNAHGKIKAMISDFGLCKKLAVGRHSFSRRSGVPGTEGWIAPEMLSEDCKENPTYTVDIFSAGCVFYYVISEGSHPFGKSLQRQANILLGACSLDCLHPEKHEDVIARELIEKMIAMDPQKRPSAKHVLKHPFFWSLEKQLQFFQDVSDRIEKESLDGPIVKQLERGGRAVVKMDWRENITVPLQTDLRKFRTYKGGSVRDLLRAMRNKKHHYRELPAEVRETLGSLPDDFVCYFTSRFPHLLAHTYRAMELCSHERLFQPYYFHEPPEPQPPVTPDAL
UniProt P11362, whole entry, looked up: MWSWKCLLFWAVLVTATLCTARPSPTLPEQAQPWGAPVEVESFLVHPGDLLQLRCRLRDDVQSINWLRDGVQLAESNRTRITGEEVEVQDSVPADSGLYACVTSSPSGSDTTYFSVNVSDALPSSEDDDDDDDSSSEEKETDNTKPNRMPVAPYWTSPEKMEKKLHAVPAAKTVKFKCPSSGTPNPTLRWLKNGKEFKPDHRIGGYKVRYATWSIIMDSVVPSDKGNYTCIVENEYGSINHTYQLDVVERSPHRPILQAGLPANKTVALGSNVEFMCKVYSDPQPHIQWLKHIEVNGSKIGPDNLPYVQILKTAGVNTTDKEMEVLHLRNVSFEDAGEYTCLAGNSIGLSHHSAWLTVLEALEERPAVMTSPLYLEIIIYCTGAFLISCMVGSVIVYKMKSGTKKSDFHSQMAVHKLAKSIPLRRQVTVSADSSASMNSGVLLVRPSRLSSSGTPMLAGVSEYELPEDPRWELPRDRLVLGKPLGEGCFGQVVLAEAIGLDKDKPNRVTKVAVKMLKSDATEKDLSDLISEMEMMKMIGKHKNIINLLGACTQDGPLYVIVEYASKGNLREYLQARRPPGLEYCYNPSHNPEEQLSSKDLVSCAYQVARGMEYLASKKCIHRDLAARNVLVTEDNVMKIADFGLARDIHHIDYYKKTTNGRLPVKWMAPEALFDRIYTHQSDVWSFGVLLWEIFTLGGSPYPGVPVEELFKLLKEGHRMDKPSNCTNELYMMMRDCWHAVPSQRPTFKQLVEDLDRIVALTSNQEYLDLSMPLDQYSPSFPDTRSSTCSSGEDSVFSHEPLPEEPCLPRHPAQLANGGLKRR
UniProt P21802, whole entry, looked up: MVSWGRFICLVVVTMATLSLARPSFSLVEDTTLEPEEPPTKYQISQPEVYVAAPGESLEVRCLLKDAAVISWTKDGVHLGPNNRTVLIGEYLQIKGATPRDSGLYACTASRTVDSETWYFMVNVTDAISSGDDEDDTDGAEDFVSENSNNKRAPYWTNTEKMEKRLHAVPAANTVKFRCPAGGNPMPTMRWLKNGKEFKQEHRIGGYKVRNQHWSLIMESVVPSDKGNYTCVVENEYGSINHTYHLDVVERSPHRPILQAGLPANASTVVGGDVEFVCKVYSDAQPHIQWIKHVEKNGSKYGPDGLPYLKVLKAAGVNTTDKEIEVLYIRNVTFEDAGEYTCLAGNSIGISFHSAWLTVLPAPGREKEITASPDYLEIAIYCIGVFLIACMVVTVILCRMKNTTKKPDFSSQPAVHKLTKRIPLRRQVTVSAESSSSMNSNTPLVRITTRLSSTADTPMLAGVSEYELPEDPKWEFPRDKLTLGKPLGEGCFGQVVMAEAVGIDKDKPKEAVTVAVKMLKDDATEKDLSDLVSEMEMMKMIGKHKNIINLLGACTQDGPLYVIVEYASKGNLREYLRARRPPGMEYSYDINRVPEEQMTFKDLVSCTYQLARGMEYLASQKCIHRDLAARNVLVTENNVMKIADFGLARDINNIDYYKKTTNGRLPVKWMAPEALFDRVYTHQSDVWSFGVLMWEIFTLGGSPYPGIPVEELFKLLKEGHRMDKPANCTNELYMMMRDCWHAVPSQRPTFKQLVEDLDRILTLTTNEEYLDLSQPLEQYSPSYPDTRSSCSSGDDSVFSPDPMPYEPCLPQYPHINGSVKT
UniProt P22607, whole entry, looked up: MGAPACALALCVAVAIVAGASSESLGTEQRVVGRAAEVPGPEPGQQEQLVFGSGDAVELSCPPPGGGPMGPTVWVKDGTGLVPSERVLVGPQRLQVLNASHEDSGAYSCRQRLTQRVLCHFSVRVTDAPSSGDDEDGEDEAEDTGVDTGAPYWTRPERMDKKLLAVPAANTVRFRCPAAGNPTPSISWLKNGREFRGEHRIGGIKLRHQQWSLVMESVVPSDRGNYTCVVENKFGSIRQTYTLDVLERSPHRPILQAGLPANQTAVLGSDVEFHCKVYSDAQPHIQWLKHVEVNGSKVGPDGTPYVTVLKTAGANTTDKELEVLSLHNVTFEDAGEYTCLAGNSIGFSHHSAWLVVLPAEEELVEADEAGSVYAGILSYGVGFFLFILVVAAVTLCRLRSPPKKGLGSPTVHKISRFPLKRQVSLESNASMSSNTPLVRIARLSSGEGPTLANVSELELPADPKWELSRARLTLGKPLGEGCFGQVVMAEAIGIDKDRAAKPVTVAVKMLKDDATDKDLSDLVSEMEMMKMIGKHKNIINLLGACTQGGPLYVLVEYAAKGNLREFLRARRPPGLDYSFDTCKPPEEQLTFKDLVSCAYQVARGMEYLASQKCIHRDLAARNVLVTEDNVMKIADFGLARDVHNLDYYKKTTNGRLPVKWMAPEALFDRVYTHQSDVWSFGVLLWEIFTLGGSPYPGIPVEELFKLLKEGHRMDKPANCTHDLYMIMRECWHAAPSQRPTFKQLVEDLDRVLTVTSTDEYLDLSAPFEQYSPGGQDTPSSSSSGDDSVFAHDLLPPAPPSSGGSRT
UniProt P36888, whole entry: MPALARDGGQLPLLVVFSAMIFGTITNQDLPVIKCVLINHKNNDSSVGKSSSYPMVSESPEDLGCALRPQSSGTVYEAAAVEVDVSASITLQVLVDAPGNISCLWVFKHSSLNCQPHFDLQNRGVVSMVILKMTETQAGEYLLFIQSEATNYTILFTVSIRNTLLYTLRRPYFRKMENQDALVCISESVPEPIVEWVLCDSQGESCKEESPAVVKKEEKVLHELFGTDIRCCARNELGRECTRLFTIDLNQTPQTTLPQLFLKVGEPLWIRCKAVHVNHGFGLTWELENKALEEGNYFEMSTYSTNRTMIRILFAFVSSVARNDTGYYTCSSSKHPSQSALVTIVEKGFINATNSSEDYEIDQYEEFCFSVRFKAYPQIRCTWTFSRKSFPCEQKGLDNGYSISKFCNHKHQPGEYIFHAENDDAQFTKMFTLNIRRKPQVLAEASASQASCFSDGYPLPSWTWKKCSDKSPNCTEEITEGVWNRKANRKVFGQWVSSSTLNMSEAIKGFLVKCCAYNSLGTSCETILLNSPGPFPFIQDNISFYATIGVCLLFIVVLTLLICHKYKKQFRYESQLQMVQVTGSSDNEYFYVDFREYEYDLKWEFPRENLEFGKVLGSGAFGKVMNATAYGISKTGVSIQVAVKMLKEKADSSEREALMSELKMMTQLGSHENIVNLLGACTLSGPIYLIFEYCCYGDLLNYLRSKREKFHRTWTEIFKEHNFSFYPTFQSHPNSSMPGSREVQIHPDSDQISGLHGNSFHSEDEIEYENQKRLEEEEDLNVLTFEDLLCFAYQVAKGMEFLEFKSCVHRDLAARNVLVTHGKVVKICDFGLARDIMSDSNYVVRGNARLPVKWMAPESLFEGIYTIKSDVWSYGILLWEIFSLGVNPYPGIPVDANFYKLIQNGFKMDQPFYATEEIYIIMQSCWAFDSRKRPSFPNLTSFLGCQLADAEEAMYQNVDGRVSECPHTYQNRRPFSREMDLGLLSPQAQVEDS
UniProt P06241, whole entry, looked up: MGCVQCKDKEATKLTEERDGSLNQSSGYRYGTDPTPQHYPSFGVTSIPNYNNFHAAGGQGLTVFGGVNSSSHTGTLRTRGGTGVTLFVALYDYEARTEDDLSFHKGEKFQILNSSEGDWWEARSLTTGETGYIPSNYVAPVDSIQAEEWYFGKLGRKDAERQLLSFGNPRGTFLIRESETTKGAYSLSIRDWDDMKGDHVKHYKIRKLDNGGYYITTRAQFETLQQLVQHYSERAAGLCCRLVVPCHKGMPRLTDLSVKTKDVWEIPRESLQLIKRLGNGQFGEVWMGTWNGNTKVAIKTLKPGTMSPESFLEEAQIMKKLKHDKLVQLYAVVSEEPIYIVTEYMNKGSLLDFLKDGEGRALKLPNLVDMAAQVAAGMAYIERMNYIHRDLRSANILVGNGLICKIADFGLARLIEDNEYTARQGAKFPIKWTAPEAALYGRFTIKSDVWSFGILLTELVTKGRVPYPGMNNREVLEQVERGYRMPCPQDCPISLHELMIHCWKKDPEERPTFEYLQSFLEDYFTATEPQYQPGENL
UniProt P14616: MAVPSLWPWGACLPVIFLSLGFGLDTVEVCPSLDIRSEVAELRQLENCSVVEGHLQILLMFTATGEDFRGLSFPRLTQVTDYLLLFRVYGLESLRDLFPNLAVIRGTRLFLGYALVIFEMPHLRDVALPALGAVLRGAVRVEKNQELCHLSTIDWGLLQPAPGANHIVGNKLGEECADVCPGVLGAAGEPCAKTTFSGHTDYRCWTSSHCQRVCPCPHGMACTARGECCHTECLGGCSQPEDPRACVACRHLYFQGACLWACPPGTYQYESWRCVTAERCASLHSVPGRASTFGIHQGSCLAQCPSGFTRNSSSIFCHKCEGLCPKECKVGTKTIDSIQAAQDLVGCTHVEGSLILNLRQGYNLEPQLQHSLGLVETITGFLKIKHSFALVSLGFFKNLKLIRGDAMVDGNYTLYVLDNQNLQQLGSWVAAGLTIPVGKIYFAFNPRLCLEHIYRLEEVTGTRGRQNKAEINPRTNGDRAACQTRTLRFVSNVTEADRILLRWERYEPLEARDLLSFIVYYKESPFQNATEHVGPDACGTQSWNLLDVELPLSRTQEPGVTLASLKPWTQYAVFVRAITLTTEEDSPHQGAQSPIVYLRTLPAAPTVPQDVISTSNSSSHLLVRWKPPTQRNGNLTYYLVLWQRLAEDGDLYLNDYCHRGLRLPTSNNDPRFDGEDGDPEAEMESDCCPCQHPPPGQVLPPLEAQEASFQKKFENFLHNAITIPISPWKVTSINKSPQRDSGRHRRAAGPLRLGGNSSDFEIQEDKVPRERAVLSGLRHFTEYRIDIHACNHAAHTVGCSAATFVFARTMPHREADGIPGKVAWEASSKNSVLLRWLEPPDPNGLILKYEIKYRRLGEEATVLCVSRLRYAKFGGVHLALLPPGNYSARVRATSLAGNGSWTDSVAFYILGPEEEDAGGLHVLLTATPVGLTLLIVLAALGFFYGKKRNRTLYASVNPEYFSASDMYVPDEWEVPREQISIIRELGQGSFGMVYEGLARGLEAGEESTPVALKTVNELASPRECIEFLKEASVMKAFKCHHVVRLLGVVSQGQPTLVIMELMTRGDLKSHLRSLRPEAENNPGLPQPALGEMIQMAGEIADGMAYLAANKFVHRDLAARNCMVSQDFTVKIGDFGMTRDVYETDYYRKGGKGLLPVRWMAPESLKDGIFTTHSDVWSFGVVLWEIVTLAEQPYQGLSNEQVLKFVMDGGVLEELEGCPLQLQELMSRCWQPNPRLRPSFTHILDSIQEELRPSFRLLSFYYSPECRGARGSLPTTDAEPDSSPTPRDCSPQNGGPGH

Legend:
Test in all cases: kinase-Nluc reporter destabilization hit call (1 = scored as downregulated) (binary); higher = compound decreases kinase abundance
Conditions in all cases: K562; 2-18 h
EGFR = EGFR (UniProt P00533)
EGFR_G719S = EGFR_G719S (UniProt P00533)
EGFR_G719S_T790M = EGFR_G719S_T790M (UniProt P00533)
EGFR_L718V = EGFR_L718V (UniProt P00533)
EGFR_L858R = EGFR_L858R (UniProt P00533)
EGFR_L861Q = EGFR_L861Q (UniProt P00533)
EGFR_T790M = EGFR_T790M (UniProt P00533)
EPHA2 = EPHA2 (UniProt P29317)
ERBB3 = ERBB3 (UniProt P21860)
[1] = target: ERBB4_R711C (clone: ERBB4_mut) (UniProt Q15303)
ERN1 = ERN1 (UniProt O75460)
FGFR1 = FGFR1 (UniProt P11362)
FGFR2 = FGFR2 (UniProt P21802)
FGFR3 = FGFR3 (UniProt P22607)
FGR = FGR (UniProt P09769)
FLT3 = FLT3 (UniProt P36888)
FYN = FYN (UniProt P06241)
GSK3A = GSK3A (UniProt P49840)
HER2 = HER2 (UniProt P04626)
INSRR = INSRR (UniProt P14616)

Measured: kinase-Nluc reporter destabilization hit call

N#CC(c1ccnc(OCc2ccc(CN3CCOCC3)cc2)n1)c1nc2ccccc2s1 (stereo not given) [Bentamapimod] (2.5 µM)
inactive: EGFR 0 | EGFR_G719S 0 | EGFR_G719S_T790M 0 | EGFR_L718V 0 | EGFR_L858R 0 | EGFR_L861Q 0 | EGFR_T790M 0 | EPHA2 = 0 | ERBB3 = 0 | [1] 0 | ERN1 = 0 | FGFR1 = 0 | FGFR2 = 0 | FGFR3 = 0 | FGR 0 | FLT3 = 0 | FYN 0 | GSK3A 0 | HER2 = 0 | INSRR 0

NC1=NCCN1CC(=O)O [Cyclocreatine] (10 µM)
inactive: EGFR 0 | EGFR_G719S 0 | EGFR_G719S_T790M 0 | EGFR_L718V 0 | EGFR_L858R 0 | EGFR_L861Q 0 | EGFR_T790M 0 | EPHA2 = 0 | ERBB3 = 0 | [1] 0 | ERN1 = 0 | FGFR1 = 0 | FGFR2 = 0 | FGFR3 = 0 | FGR 0 | FLT3 = 0 | FYN 0 | GSK3A 0 | HER2 = 0 | INSRR 0

Nc1ncnc2c1c(-c1ccc(Oc3ccccc3)cc1)nn2C1CCN(CCOCCOCCOc2ccc3c(c2)CN(C2CCC(=O)NC2=O)C3=O)CC1 (stereo not given) (2.5 µM)
inactive: EGFR 0 | EGFR_G719S 0 | EGFR_G719S_T790M 0 | EGFR_L718V 0 | EGFR_L858R 0 | EGFR_L861Q 0 | EGFR_T790M 0 | EPHA2 = 0 | ERBB3 = 0 | [1] 0 | ERN1 = 0 | FGFR1 = 0 | FGFR2 = 0 | FGFR3 = 0 | FGR 0 | FLT3 = 0 | FYN 0 | GSK3A 0 | HER2 = 0 | INSRR 0

CC(C)(C)n1nc(Cc2ccccc2O)c2c(N)ncnc21 (10 µM)
inactive: EGFR 0 | EGFR_G719S 0 | EGFR_G719S_T790M 0 | EGFR_L718V 0 | EGFR_L858R 0 | EGFR_L861Q 0 | EGFR_T790M 0 | EPHA2 = 0 | ERBB3 = 0 | [1] 0 | ERN1 = 0 | FGFR1 = 0 | FGFR2 = 0 | FGFR3 = 0 | FGR 0 | FLT3 = 0 | FYN 0 | GSK3A 0 | HER2 = 0 | INSRR 0

O=C(Nc1nc(=O)n(Cc2ccc(Cl)cc2)s1)c1ccc(Cl)cc1 (10 µM)
inactive: EGFR 0 | EGFR_G719S 0 | EGFR_G719S_T790M 0 | EGFR_L718V 0 | EGFR_L858R 0 | EGFR_L861Q 0 | EGFR_T790M 0 | EPHA2 = 0 | ERBB3 = 0 | [1] 0 | ERN1 = 0 | FGFR1 = 0 | FGFR2 = 0 | FGFR3 = 0 | FGR 0 | FLT3 = 0 | FYN 0 | GSK3A 0 | HER2 = 0 | INSRR 0

C[C@@H]1COCCN1c1nc(-c2cnc(N)cc2C(F)F)nc(N2[C@H](C)COC[C@@H]2C)n1 (2.5 µM)
inactive: EGFR 0 | EGFR_G719S 0 | EGFR_G719S_T790M 0 | EGFR_L718V 0 | EGFR_L858R 0 | EGFR_L861Q 0 | EGFR_T790M 0 | EPHA2 = 0 | ERBB3 = 0 | [1] 0 | ERN1 = 0 | FGFR1 = 0 | FGFR2 = 0 | FGFR3 = 0 | FGR 0 | FLT3 = 0 | FYN 0 | GSK3A 0 | HER2 = 0 | INSRR 0

c1ccc(-c2nc(=NCCN3CCOCC3)sn2-c2ccccc2)cc1 [VP3.15 (dihydrobromide)] (10 µM)
inactive: EGFR 0 | EGFR_G719S 0 | EGFR_G719S_T790M 0 | EGFR_L718V 0 | EGFR_L858R 0 | EGFR_L861Q 0 | EGFR_T790M 0 | EPHA2 = 0 | ERBB3 = 0 | [1] 0 | ERN1 = 0 | FGFR1 = 0 | FGFR2 = 0 | FGFR3 = 0 | FGR 0 | FLT3 = 0 | FYN 0 | GSK3A 0 | HER2 = 0 | INSRR 0

Nc1c(C(=O)NCc2ccc(C(=O)NCCCC3CCCCC3)cc2)cnn1-c1ccccc1 (2.5 µM)
inactive: EGFR 0 | EGFR_G719S 0 | EGFR_G719S_T790M 0 | EGFR_L718V 0 | EGFR_L858R 0 | EGFR_L861Q 0 | EGFR_T790M 0 | EPHA2 = 0 | ERBB3 = 0 | [1] 0 | ERN1 = 0 | FGFR1 = 0 | FGFR2 = 0 | FGFR3 = 0 | FGR 0 | FLT3 = 0 | FYN 0 | GSK3A 0 | HER2 = 0 | INSRR 0

COc1ncccc1-c1cnn2ccc(N3CCN(C(=O)OC(C)C)CC3)nc12 (10 µM)
inactive: EGFR 0 | EGFR_G719S 0 | EGFR_G719S_T790M 0 | EGFR_L718V 0 | EGFR_L858R 0 | EGFR_L861Q 0 | EGFR_T790M 0 | EPHA2 = 0 | ERBB3 = 0 | [1] 0 | ERN1 = 0 | FGFR1 = 0 | FGFR2 = 0 | FGFR3 = 0 | FGR 0 | FLT3 = 0 | FYN 0 | GSK3A 0 | HER2 = 0 | INSRR 0

c1ccc(-c2nc3c(c(-n4ccc5cnccc54)n2)CCC3)nc1 (10 µM)
inactive: EGFR 0 | EGFR_G719S 0 | EGFR_G719S_T790M 0 | EGFR_L718V 0 | EGFR_L858R 0 | EGFR_L861Q 0 | EGFR_T790M 0 | EPHA2 = 0 | ERBB3 = 0 | [1] 0 | ERN1 = 0 | FGFR1 = 0 | FGFR2 = 0 | FGFR3 = 0 | FGR 0 | FLT3 = 0 | FYN 0 | GSK3A 0 | HER2 = 0 | INSRR 0

C=CC(=O)N1CCC[C@H](n2c(=O)n(-c3ccc(Oc4ccccc4)cc3)c3c(N)ncnc32)C1 [ONO-4059 (analog)] (10 µM)
inactive: EGFR 0 | EGFR_G719S 0 | EGFR_G719S_T790M 0 | EGFR_L718V 0 | EGFR_L858R 0 | EGFR_L861Q 0 | EGFR_T790M 0 | EPHA2 = 0 | ERBB3 = 0 | [1] 0 | ERN1 = 0 | FGFR1 = 0 | FGFR2 = 0 | FGFR3 = 0 | FGR 0 | FLT3 = 0 | FYN 0 | GSK3A 0 | HER2 = 0 | INSRR 0

Cc1ccc(-c2csc3ncnc(SCCC(=O)O)c23)cc1 (10 µM)
inactive: EGFR 0 | EGFR_G719S 0 | EGFR_G719S_T790M 0 | EGFR_L718V 0 | EGFR_L858R 0 | EGFR_L861Q 0 | EGFR_T790M 0 | EPHA2 = 0 | ERBB3 = 0 | [1] 0 | ERN1 = 0 | FGFR1 = 0 | FGFR2 = 0 | FGFR3 = 0 | FGR 0 | FLT3 = 0 | FYN 0 | GSK3A 0 | HER2 = 0 | INSRR 0

C[C@@H]1CC(=O)c2c(ccc3c2C(=O)c2cccc(O)c2C3=O)C1 [Ochromycinone] (10 µM)
inactive: EGFR 0 | EGFR_G719S 0 | EGFR_G719S_T790M 0 | EGFR_L718V 0 | EGFR_L858R 0 | EGFR_L861Q 0 | EGFR_T790M 0 | EPHA2 = 0 | ERBB3 = 0 | [1] 0 | ERN1 = 0 | FGFR1 = 0 | FGFR2 = 0 | FGFR3 = 0 | FGR 0 | FLT3 = 0 | FYN 0 | GSK3A 0 | HER2 = 0 | INSRR 0

NC(=O)N1CCC(CC(=O)N2CCC([C@H]3c4ncc(Br)cc4CCc4cc(Cl)cc(Br)c43)CC2)CC1 [Lonafarnib] (2.5 µM)
inactive: EGFR 0 | EGFR_G719S 0 | EGFR_G719S_T790M 0 | EGFR_L718V 0 | EGFR_L858R 0 | EGFR_L861Q 0 | EGFR_T790M 0 | EPHA2 = 0 | ERBB3 = 0 | [1] 0 | ERN1 = 0 | FGFR1 = 0 | FGFR2 = 0 | FGFR3 = 0 | FGR 0 | FLT3 = 0 | FYN 0 | GSK3A 0 | HER2 = 0 | INSRR 0

CNC(=O)c1ccccc1Nc1nc(Nc2ccc3c(c2OC)CCC[C@H](N2CCN(CCO)CC2)C3)ncc1Cl (10 µM)
inactive: EGFR 0 | EGFR_G719S 0 | EGFR_G719S_T790M 0 | EGFR_L718V 0 | EGFR_L858R 0 | EGFR_L861Q 0 | EGFR_T790M 0 | EPHA2 = 0 | ERBB3 = 0 | [1] 0 | ERN1 = 0 | FGFR1 = 0 | FGFR2 = 0 | FGFR3 = 0 | FGR 0 | FLT3 = 0 | FYN 0 | GSK3A 0 | HER2 = 0 | INSRR 0

Cc1ccc(NC(=O)c2ccc(CN(CCN(C)C)C(=O)c3cccnc3)cc2)cc1Nc1nccc(-c2cccnc2)n1 [PDGFRα kinase inhibitor 1] (10 µM)
inactive: EGFR 0 | EGFR_G719S 0 | EGFR_G719S_T790M 0 | EGFR_L718V 0 | EGFR_L858R 0 | EGFR_L861Q 0 | EGFR_T790M 0 | EPHA2 = 0 | ERBB3 = 0 | [1] 0 | ERN1 = 0 | FGFR1 = 0 | FGFR2 = 0 | FGFR3 = 0 | FGR 0 | FLT3 = 0 | FYN 0 | GSK3A 0 | HER2 = 0 | INSRR 0

Nc1ncnc2c1c(COc1cccc(Cl)c1)nn2C1CCOCC1 (10 µM)
inactive: EGFR 0 | EGFR_G719S 0 | EGFR_G719S_T790M 0 | EGFR_L718V 0 | EGFR_L858R 0 | EGFR_L861Q 0 | EGFR_T790M 0 | EPHA2 = 0 | ERBB3 = 0 | [1] 0 | ERN1 = 0 | FGFR1 = 0 | FGFR2 = 0 | FGFR3 = 0 | FGR 0 | FLT3 = 0 | FYN 0 | GSK3A 0 | HER2 = 0 | INSRR 0
